PubChem BioAssay AID1259308 – NCATS – 2017

Purpose: 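Genes whose loss raises luciferase production in HEK293 cells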 (primary screen)
Cell system: human HEK293 embryonic kidney cells stably expressing firefly luciferase (HEK-CMV-Luc2-Hygro)
Reagent: single siRNA against human genes, 0.8 pmol siRNA per well
Time to read-out: 72 h
Detection: 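Luciferase light (ONE-Glo) measured on one replicate plate set and viability (CellTiter-Glo) on the other, scaled to a negative control siRNA, with robust z-scores and luciferase per cell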
Scale: total luciferase, z-score: higher = more reporter protein produced
Active means: 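An siRNA counts as active if its total luciferase robust z-score exceeds 3; genes with two or more such siRNAs out of three were retested with fresh siRNAs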
Meaning of the calls: active = raised luciferase; inactive = no rise
The whole screen tested about 59,000 reagents; shown is an unselected part. Over the whole deposit, about 1,510 (2.6%) got an active call. 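Calls use total luciferase alone and ignore viability, so some active siRNAs may act by altering cell number.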 A number with no mark means an inactive call. Reagents against one gene are numbered here. Not all columns of the deposit are shown.

How did the screen score SMIM45 #1?
total luciferase, z-score: -0.308

Which result is listed for SMIM45 #2?
total luciferase, z-score: 0.432

For SMIM45 #3, what does the deposit list?
total luciferase, z-score: 1.18

For MRPS16 #1, what was measured?
total luciferase, z-score: 0.00397

With MRPS16 #2, what does the deposit list?
total luciferase, z-score: -0.241

With MRPS16 #3, how do the results read?
total luciferase, z-score: -0.178

What is on record for C7orf33 #1?
total luciferase, z-score: 1.11

Which result is listed for C7orf33 #2?
total luciferase, z-score: 0.84

Which result is listed for C7orf33 #3?
total luciferase, z-score: 0.505

Which result is listed for CUBN #1?
total luciferase, z-score: 0.393

What did the screen give for CUBN #2?
total luciferase, z-score: -0.311

Which result is listed for CUBN #3?
total luciferase, z-score: 1.8

With PPP1R3D #1, what does the deposit list?
total luciferase, z-score: 0.0568

With PPP1R3D #2, how do the results read?
total luciferase, z-score: -1.34

With PPP1R3D #3, what does the deposit list?
total luciferase, z-score: -0.202

With ZKSCAN3 #1, what was measured?
total luciferase, z-score: 0.0795

For ZKSCAN3 #2, how do the results read?
total luciferase, z-score: -0.523

For ZKSCAN3 #3, how do the results read?
total luciferase, z-score: 0.561

What is on record for PUF60 #1?
total luciferase, z-score: 0.607

How did the screen score PUF60 #2?
total luciferase, z-score: 0.187

With PUF60 #3, what was measured?
total luciferase, z-score: 0.919

With AMHR2 #1, what does the deposit list?
total luciferase, z-score: 0.583

How did the screen score AMHR2 #2?
total luciferase, z-score: 0.345

With AMHR2 #3, how do the results read?
total luciferase, z-score: -1.08

How did the screen score CERS6 #1?
total luciferase, z-score: -0.714

For CERS6 #2, how do the results read?
total luciferase, z-score: -0.495

For CERS6 #3, how do the results read?
total luciferase, z-score: 0.697

For RPL34P34 #1, what was measured?
total luciferase, z-score: -2.72

For RPL34P34 #2, what does the deposit list?
total luciferase, z-score: -2.97

For RPL34P34 #3, what does the deposit list?
total luciferase, z-score: -2.72

Which result is listed for OGFOD1 #1?
total luciferase, z-score: -0.171

For OGFOD1 #2, what does the deposit list?
total luciferase, z-score: -1.27

Which result is listed for OGFOD1 #3?
total luciferase, z-score: 1.65
